Screening data, single-dose tests

The chains behind the UniProt entries cited, without tags or fusion partners. Residues count along the entry.
UniProt A4I591, 1-473: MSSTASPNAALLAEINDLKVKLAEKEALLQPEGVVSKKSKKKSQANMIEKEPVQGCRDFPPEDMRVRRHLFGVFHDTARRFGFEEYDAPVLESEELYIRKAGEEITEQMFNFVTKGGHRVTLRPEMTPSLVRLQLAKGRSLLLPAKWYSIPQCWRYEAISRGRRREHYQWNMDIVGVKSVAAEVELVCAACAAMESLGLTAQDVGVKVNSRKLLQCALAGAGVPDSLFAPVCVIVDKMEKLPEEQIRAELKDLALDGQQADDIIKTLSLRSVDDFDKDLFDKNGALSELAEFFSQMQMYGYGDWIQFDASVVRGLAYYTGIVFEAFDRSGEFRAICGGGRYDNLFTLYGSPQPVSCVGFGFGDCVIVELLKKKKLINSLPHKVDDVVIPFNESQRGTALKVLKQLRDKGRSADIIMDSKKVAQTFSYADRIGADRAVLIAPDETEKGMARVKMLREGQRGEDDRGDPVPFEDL
UniProt Q8IDJ8, 1-583: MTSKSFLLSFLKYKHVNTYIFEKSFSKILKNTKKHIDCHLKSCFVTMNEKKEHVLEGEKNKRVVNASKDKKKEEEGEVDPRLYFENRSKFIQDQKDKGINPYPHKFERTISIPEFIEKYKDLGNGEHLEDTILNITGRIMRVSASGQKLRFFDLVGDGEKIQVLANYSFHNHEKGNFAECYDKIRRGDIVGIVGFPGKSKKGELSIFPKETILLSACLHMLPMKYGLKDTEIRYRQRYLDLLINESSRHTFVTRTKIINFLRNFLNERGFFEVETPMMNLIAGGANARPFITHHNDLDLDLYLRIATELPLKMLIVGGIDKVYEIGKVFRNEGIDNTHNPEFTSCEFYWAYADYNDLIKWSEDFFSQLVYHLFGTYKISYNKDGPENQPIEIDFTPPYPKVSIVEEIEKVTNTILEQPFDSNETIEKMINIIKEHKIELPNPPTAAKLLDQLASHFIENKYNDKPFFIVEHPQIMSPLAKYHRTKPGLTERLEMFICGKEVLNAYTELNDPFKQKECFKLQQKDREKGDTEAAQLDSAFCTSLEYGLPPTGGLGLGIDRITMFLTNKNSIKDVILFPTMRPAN

LiHisRS: 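Histidine-tRNA ligase, Leishmania infantum (UniProt A4I591). Enzyme assay of histidyl-tRNA synthetase; the read-out is not stated. Compounds at 30 µM. The record gives no direction; compounds that gave an IC50 in retests scored well above the rest, so higher reads as stronger inhibition. The assay is labelled LdHisRS but filed under L. infantum. Of about 69,000 compounds tested this way, about 410 (0.6%) reached 50% or more in at least one test.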
PfKRS1: 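Enzyme assay of the cytosolic lysyl-tRNA synthetase in 384-well plates, read by luminescence. Target: Lysine-tRNA ligase, Plasmodium falciparum 3D7 (UniProt Q8IDJ8). Concentration: 30 µM. Higher reads as stronger inhibition, judged from the few compounds that gave an IC50. Size under these conditions: about 69,000 compounds, about 49 of them at 50% or above in at least one test.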

Values are the deposited “Percent Effect”, in %. The controls that fix the scale are not given in the record; negative values are as filed. The compounds are a random part of those screened.

| Compound | LiHisRS | PfKRS1 |
|---|---|---|
| `N#CCc1ccc(NC(=O)Cn2cc(I)cn2)cc1` | -7.895% | 0.5474% |
| `CN(C)C(=O)CN1C[C@@H]2CC[C@H](C1)N(Cc1cc(F)ccc1F)C2` | 1.905% | -8.29% |
| `O=C1COC2(CCN(C(=O)c3ccoc3)CC2)CN1Cc1ccccn1` | 4.425% | 4.062% |
| `CC(C)(CO)Nc1ccc(-c2nc(-c3ccccc3F)no2)cn1` | 5.128% | -0.4134% |
| `CN(C)C(=O)c1cn[nH]c1C1CCCN1Cc1c[nH]cn1` (stereo unspecified) | 9.396% | 1.263% |
| `COC(=O)c1c(Cl)c(C2CC2)nc2onc(C)c12` | 3.297% | -3.913% |
| `CN1CCN(Cc2cccc(NCc3ncc[nH]3)c2)CC1` | -3.509% | 1.304% |
| `CCc1noc(C(C)SCCS(C)(=O)=O)n1` (stereo unspecified) | 6.349% | 0.9356% |
| `Cc1nc(N2CCC3(CCCN(CC4CC4)C3=O)C2)c2sccc2n1` (stereo unspecified) | 17.5% | 6.783% |
| `NC(=O)C1CCN(C(=O)CCCc2nnc(-c3ccccc3)o2)C1` (stereo unspecified) | 12.5% | -1.139% |
| `COC(=O)c1ccc(S(=O)(=O)NC2CNC(=O)C2)cc1` (stereo unspecified) | 38.2% | 14.15% |
| `CCc1ccc(CNc2ccccc2CN2CCC(O)CC2)o1` | 8.571% | 1.699% |
| `CC(C)(C)c1noc(OCC(=O)NC2CCCC2)n1` | 23.29% | 6.649% |
| `CCN(Cc1cn(C)nc1-c1ccc2c(c1)OCCO2)CC1CCCO1` (stereo unspecified) | 11.29% | 5.773% |
| `CC(=O)N1C[C@@H](c2ccsc2)[C@@H]2CN(CC3CCCCC3)CC[C@@H]21` | 28.57% | 4.424% |
| `Cc1nn(C)c(Cl)c1S(=O)(=O)N(C)c1ccc(Cl)cn1` | 11.71% | 10.8% |
| `CNc1cccc(C2CCCN(C(=O)c3ccncc3)C2)n1` (stereo unspecified) | -25% | 5.236% |
| `Cc1noc(C(C)N2CCN(CCCN3CCCC3=O)CC2)n1` (stereo unspecified) | 21.43% | 5.009% |
| `CC(=O)N1CCN(C(=O)C2SCCc3sccc32)CC1` (stereo unspecified) | 1.923% | 0.06021% |
| `O=C(c1ccoc1)N1CC[C@H]2C[C@@H](c3ccncn3)O[C@@H]2C1` | 12.73% | 11.56% |
| `O=c1[nH]c(COc2ccc(Cl)cc2)nc2c1CCNC2` | 8.163% | 4.253% |
| `CN1CCCC(CNC(=O)N2CCN(Cc3ccon3)CC2)C1` (stereo unspecified) | 18.45% | 1.112% |
| `CCOc1ccccc1C(CC(=O)N(C)C)NC(C)=O` (stereo unspecified) | 24.66% | 2.774% |
| `O=C(c1cccc2c1OCCO2)N1CCCC1Cn1cccn1` (stereo unspecified) | 13.22% | 12.45% |
| `C[C@@H](O)CNC(=O)c1nc(Cc2c(Cl)cccc2Cl)no1` | 12.09% | -1.136% |
| `CCCOc1ccc2c(c1)OCC(C(=O)NC(C)Cn1cccn1)=C2` (stereo unspecified) | 10.67% | 1.505% |
| `Cc1nn(C)c(N(C)C)c1CNCCC(=O)NC1CCCC1` | -13.39% | 0.2904% |
| `CCN(c1ccc(C(=O)N2CCC(C)CC2)cc1)S(=O)(=O)CC` | -2.247% | -2.803% |
| `c1cncc(COCC2CN(Cc3ccncc3)Cc3ccnn3C2)c1` (stereo unspecified) | 3.947% | 0.8117% |
| `CN(C)c1ncccc1N(C)C(=O)Cn1cc(-c2ccccc2)nn1` | 0% | 4.383% |
| `CCS(=O)(=O)N1C[C@H]2C[C@H](C(=O)N(C)C)[C@@H](C1)O2` | 6.569% | 5.398% |
| `CC(=O)NCc1ccc(C(=O)N2CCCC2c2cnn(C)c2)o1` (stereo unspecified) | 4.545% | -3.423% |
| `O=C(CN(Cc1cccnc1)CC1CCCO1)Nc1ccc(F)cc1` (stereo unspecified) | 11.54% | -1.449% |
| `O=C1[C@@H]2CCN(C3CCC3)C[C@@H]2OCCN1Cc1ccncc1` | 17.17% | 4.254% |
| `CCCn1cnc2c1CN(C(=O)c1ccc(F)cc1)[C@H](C(=O)OC)C2` | 27.03% | 4.285% |
| `Cn1cccc1C(=O)N1CCO[C@H]2[C@H](OCc3cccnc3)CC[C@@H]21` | 25.71% | 1.941% |
| `CCS(=O)(=O)N(C)C1CCN(C(=O)c2cccc(Cl)c2)CC1` | 15.38% | 6.756% |
| `Cc1cnc2n(c1=O)CC(C(=O)Nc1cccc3cccnc13)CS2` (stereo unspecified) | 67.31% | 1.611% |
| `COc1cc(N(C)Cc2cccc(-n3cccn3)c2)nc(N)n1` | 15.79% | -0.9969% |
| `CCc1cccc(NS(=O)(=O)c2cc(C)c(C(=O)O)s2)c1` | 9.836% | -0.01112% |
| `CC(=O)OCC1CCCCN1C(=O)c1ccc(Cn2ccnc2)o1` (stereo unspecified) | 14.89% | 2.624% |
| `CN1CC(=O)N(c2ccsc2)CC12CCN(C(=O)CC1CCCC1)C2` (stereo unspecified) | -41.28% | 2.92% |
| `Cc1nsc(C(=O)NCCc2ccc(F)cc2)n1` | 9.333% | 4.025% |
| `Cc1cc(C)n(-c2ccc(C(C)NS(=O)(=O)CCCS(C)(=O)=O)cc2)n1` (stereo unspecified) | 21.05% | 3.284% |
| `COc1cccc2c1OCC(C(=O)N1CCN(S(C)(=O)=O)CC1)C2` (stereo unspecified) | 19.05% | 2.37% |
| `CCOC(=O)N1C[C@H]2CC[C@@H]1CN(Cc1ccccc1)C2` | 8.602% | 1.946% |
| `Cc1cn2c(n1)C(CNCc1cccc3c1OCO3)CCC2` (stereo unspecified) | 6.306% | -1.56% |
| `O=C(Nc1cccnc1)[C@H]1C[C@@H]2CCN(Cc3nccs3)C[C@@H]2O1` | 17.65% | 3.112% |
| `Cc1nc(C2CN(C)CCO2)cc(N2CCC(C(N)=O)CC2)n1` (stereo unspecified) | 6% | -0.7834% |
| `Fc1ccc(N2CCCN(Cc3ccc(-c4cc[nH]n4)o3)CC2)cc1` | 13.33% | -0.3396% |
| `O=C(CCNc1ncccn1)N1CCCC(n2cccn2)C1` (stereo unspecified) | 6.087% | -0.9889% |
| `OCC(O)CSCc1nnc(-c2ccc(Cl)cc2)o1` (stereo unspecified) | 7.5% | 1.988% |
| `Cc1ncnc(N2CCCN(c3nc4ccccc4s3)CC2)c1C` | 25.71% | 2.47% |
| `CCOc1cc(C)ccc1NS(=O)(=O)c1cc(C)c(C(=O)O)s1` | 14.75% | 1.19% |
| `Cn1ccc(C(=O)NC2CCC23CCN(C(=O)c2ccnnc2)CC3)c1` (stereo unspecified) | 2.941% | -7.198% |
| `Cc1nnc(CN2CCN(C)C3(CCNC(=O)CC3)C2)s1` (stereo unspecified) | 8.475% | 1.697% |
| `Cc1cc(C(=O)N2CCc3nnc(N)cc3C2)c(C)n1-c1cccnc1` | 40.54% | 2.274% |
| `COc1ccc(S(=O)(=O)N2CCOC(Cn3ccnc3)C2)cc1` (stereo unspecified) | 8.571% | -0.2453% |
| `CCc1nc(CC(=O)N2CCCC2CN2CCCC2)cs1` (stereo unspecified) | 14.86% | -1.184% |
| `Cc1nc(CCN2CCCCC2)n(-c2ccc(F)cc2)n1` | 9.167% | 1.975% |
| `COCCNS(=O)(=O)c1cccc2c1CN(C(=O)c1ccoc1)CC2` | 23.29% | 1.922% |
| `Cc1ccc2c(C(=O)N(C)C)cc(-c3cnn(CCO)c3)nc2c1C` | 12.94% | 4.26% |
| `CCc1nc(C)c(C(=O)NCCN2CCCC2)s1` | 15.38% | 1.058% |
| `c1coc(-c2nc(CNCCn3cccn3)cs2)c1` | 30.91% | -0.87% |
| `CC(C)NC(=O)[C@H]1C[C@@H]2[C@@H](C1)OCCN2Cc1ccccn1` | 19.44% | 1.35% |
| `Cc1ccc(-c2nc(CCNC(=O)C3CC(=O)N(C)C3)cs2)cc1` (stereo unspecified) | 19.75% | 3.16% |
| `c1cc(CN2CCOC[C@H]2c2nc(-c3ccncc3)c[nH]2)ccn1` | 24.32% | 6.316% |
| `CN1CC[C@]2(CN(CC3CC3)C[C@H]2c2ccccc2)C1=O` | -1.923% | 0.9668% |
| `Cc1ccccc1CN1C[C@@H](CN(C)CCO)[C@@H](CO)C1` | 10.96% | 1.212% |
| `Cc1ncsc1-c1nc(Cc2cccs2)nn1C1CCN(C)CC1` | 13.49% | -1.304% |

Some entries from above, unchanged:

Cc1nn(C)c(Cl)c1S(=O)(=O)N(C)c1ccc(Cl)cn1 gave LiHisRS: 11.71%; PfKRS1: 10.8%.
Cc1nnc(CN2CCN(C)C3(CCNC(=O)CC3)C2)s1 (stereo unspecified) gave LiHisRS: 8.475%; PfKRS1: 1.697%.
CN1CC(=O)N(c2ccsc2)CC12CCN(C(=O)CC1CCCC1)C2 (stereo unspecified) gave LiHisRS: -41.28%; PfKRS1: 2.92%.
CN1CCCC(CNC(=O)N2CCN(Cc3ccon3)CC2)C1 (stereo unspecified) gave LiHisRS: 18.45%; PfKRS1: 1.112%.
NC(=O)C1CCN(C(=O)CCCc2nnc(-c3ccccc3)o2)C1 (stereo unspecified) gave LiHisRS: 12.5%; PfKRS1: -1.139%.
O=C(c1cccc2c1OCCO2)N1CCCC1Cn1cccn1 (stereo unspecified) gave LiHisRS: 13.22%; PfKRS1: 12.45%.
Fc1ccc(N2CCCN(Cc3ccc(-c4cc[nH]n4)o3)CC2)cc1 gave LiHisRS: 13.33%; PfKRS1: -0.3396%.
Cc1nc(C2CN(C)CCO2)cc(N2CCC(C(N)=O)CC2)n1 (stereo unspecified) gave LiHisRS: 6%; PfKRS1: -0.7834%.

Source: ChEMBL document CHEMBL3988442, “University of Dundee, Small-Polar-MMV Screening Library” (2021).